Values of other authors as cited in patent US20060099249A1, “Modified release formulations of at least one form of tramadol” (priority 2002, published 2006).
Where two headings read alike, the source gives them in different places. At least one compound was matched to its structure with a doubt left.

Tested on: osteoarthritis

Cc1ccc(-c2cc(C(F)(F)F)nn2-c2ccc(S(N)(=O)=O)cc2)cc1 [celecoxib, Celecoxib]
Arthritis Pain VAS change from baseline, LS mean difference vs placebo (Study No. 020, 12 weeks, celecoxib 100 mg BID, Naproxen 500 mg BID): 8.0 mm | Arthritis Pain VAS change from baseline, LS mean difference vs placebo (Study No. 040, 6 weeks, Celecoxib 100 mg BID): 13.9 mm | Arthritis Pain VAS change from baseline, LS mean difference vs placebo (Study No. 040, 6 weeks, Celecoxib 200 mg QD): 13.1 mm | Arthritis Pain VAS change from baseline, LS mean difference vs placebo (Study No. 054, 12 weeks, celecoxib 100 mg BID, Naproxen 500 mg BID): 12.2 mm | Arthritis Pain VAS change from baseline, LS mean difference vs placebo (Study No. 087, 6 weeks, Celecoxib 100 mg BID (first value)): 6.2 mm | Arthritis Pain VAS change from baseline, LS mean difference vs placebo (Study No. 087, 6 weeks, Celecoxib 100 mg BID (second value)): 8.5 mm
